Binding data for eight molecules are collected here from publication PMC8412352.

Amino acid sequences for entries named in this document (tags omitted). A change or cut given only in a name is not applied to a line headed by its entry.
UniProt Q9VKI2: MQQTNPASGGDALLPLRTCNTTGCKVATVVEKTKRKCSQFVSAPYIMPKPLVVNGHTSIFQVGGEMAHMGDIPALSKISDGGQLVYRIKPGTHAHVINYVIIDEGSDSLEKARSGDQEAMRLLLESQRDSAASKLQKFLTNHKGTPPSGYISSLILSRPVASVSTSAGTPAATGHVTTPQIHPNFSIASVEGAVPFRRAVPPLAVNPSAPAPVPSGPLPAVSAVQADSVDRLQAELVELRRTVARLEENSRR
UniProt P05205: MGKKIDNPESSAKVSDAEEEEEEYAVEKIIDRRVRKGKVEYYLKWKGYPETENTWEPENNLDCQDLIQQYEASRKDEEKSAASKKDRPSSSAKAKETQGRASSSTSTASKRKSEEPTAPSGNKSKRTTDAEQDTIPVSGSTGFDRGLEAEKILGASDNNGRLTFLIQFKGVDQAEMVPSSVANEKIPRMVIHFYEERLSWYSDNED
UniProt Q7KRX3: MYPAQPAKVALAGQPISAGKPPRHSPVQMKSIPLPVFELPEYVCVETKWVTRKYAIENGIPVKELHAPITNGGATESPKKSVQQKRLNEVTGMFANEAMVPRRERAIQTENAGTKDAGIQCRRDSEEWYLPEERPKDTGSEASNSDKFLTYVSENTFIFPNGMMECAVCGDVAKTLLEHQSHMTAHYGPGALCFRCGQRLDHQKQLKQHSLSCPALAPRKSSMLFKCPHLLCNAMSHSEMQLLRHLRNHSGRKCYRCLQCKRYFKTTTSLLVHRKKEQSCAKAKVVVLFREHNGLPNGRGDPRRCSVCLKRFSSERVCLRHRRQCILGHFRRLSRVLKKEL
UniProt Q9VAC4: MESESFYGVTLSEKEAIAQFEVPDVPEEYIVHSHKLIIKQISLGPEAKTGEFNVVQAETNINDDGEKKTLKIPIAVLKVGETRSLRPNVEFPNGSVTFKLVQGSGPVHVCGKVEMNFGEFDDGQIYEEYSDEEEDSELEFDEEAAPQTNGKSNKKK

Assay [1] addresses T1, nucleoplasmin (NLP) (D. melanogaster (endogenous in SL2)) (UniProt Q27415).
T1 sequence: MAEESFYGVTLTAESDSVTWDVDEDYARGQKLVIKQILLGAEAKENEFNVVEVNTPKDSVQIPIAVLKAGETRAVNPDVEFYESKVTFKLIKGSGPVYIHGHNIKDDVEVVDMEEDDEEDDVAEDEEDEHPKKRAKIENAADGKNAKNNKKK
As to the kind of experiment: affinity purification with mass spectrometry; IPs from benzonase-treated SL2 nuclear extracts against mock IPs: HMR (rat anti-HMR 2C10 and 12F1; anti-FLAG M2 for endogenously FLAG-tagged HMR), LHR (12F4), NLP (rabbit anti-NLP), HP1a (C1A9), FLAG-BOH1 and FLAG-BOH2 (anti-FLAG M2); IP buffer 25 mM Hepes pH 7.6, 150 mM NaCl, 12.5 mM MgCl2, 4°C; on-bead digestion.

For assay [2], the target named is FLAG-HA-BOH2 (D. melanogaster) (UniProt Q9VKI2). Described as above.
In assay [3] the target is heterochromatin protein 1a (HP1a) (D. melanogaster (endogenous in SL2)) (UniProt P05205). The assay is described as above.
In assay [4] the target is FLAG-HA-BOH1 (D. melanogaster) (UniProt Q7KRX3). Described as above.
Assay [5] concerns the target ectopically expressed wild type FLAG-HA-HMR (HMR^wt-tg) (D. melanogaster). The experiment in a line: affinity purification with mass spectrometry; anti-FLAG M2 IPs of ectopically expressed FLAG-HA-HMR alleles (HMR^wt-tg, HMR^2-tg, HMR^dC-tg) co-expressed with Myc-LHR in SL2 cells (250 uM CuSO4), nuclear extracts, endogenous HMR/LHR present; enrichment normalized to the HMR bait; IP buffer 25 mM Hepes pH 7.6, 150 mM NaCl, 4°C.

Assay [6] deals with ectopically expressed C-terminally truncated FLAG-HA-HMR (HMR^dC-tg) (D. melanogaster). The assay is described as above.
The target in assay [7] is endogenously FLAG-tagged HMR (HMR^endo) (D. melanogaster (endogenous in SL2)). As to the kind of experiment: affinity purification with mass spectrometry; IPs from benzonase-treated SL2 nuclear extracts against mock IPs: HMR (rat anti-HMR 2C10 and 12F1; anti-FLAG M2 for endogenously FLAG-tagged HMR), LHR (12F4), NLP (rabbit anti-NLP), HP1a (C1A9), FLAG-BOH1 and FLAG-BOH2 (anti-FLAG M2); IP buffer 25 mM Hepes pH 7.6, 150 mM NaCl, 12.5 mM MgCl2, 4°C; on-bead digestion.

The target in assay [8] is Hybrid male rescue protein (HMR), endogenous (D. melanogaster (endogenous in SL2)). The assay is described as above.
Assay [9] concerns the target Lethal hybrid rescue protein (LHR), endogenous (D. melanogaster (endogenous in SL2)). The description is as above.

Results are given in words; binding and its absence hold for the method and conditions named. Binding seen in cells or lysates may run through a third protein. Here binding means that the protein was enriched with, or labelled near, the bait; the list need not be complete.

For “Lethal hybrid rescue protein (LHR), endogenous (D. melanogaster (endogenous in SL2))”, in [1], the binding result is listed as “binds”.
For the molecule “Buddy Of HMR 1 (BOH1), endogenous (from UniProt Q7KRX3)”, the binding result in assay [1], in assay [2] and in assay [3] was “binds” each time.
As to “nucleophosmin (NPH) (from UniProt Q9VAC4)”, the binding result in assay [1], in [2], in [4] and in assay [3] was “binds” throughout.
Regarding “Buddy Of HMR 2 (BOH2), endogenous (from UniProt Q9VKI2)”, the binding result in [1], in [4] and in assay [3] was “binds” throughout.
Consider “Hybrid male rescue protein (HMR), endogenous (D. melanogaster (endogenous in SL2))”, for which, in assay [1], the binding entry was “binds”.

B1: SU(HW) (protein, UniProt P08970 1-941)
chain: MSASKEGKEKKGKLLGVENISPPKDKRPATRMKLLNDVGAGEDSEASTTTTTSRTPSNKQEKRGSVAGSRIKILNEEILGTPKTEKRGATKSTAPAASTVKILNEKKTPSATVTAVETTKIKTSPSKRKKMEHYVLQAVKSENTKADTTVTVVTEEDDTIDFILADDEEVVPGRIENNNGQEIVVTEDDEDLGEDGDEDGEDSSGKGNSSQTKIKEIVEHVCGKCYKTFRRVQSLKKHLEFCRYDSGYHLRKADMLKNLEKIEKDAVVMEKKDICFCCSESYDTFHLGHINCPDCPKSFKTQTSYERHIFITHSEFSDFPCSICNANLRSEALLALHEEQHKSRGKPYACKICGKDFTRSYHLKRHQKYSSCSSNETDTMSCKVCDRVFYRLDNLRSHLKQHLGTQVVKKPEYMCHTCKNCFYSLSTLNIHIRTHTGEKPFDCDLCDKKFSALVALKKHRRYHTGEKPYSCTVCNQAFAVKEVLNRHMKRHTGERPHKCDECGKSFIQATQLRTHSKTHIRPFPCEQCDEKFKTEKQLERHVKTHSRTKRPVFSCAECKRNFRTPALLKEHMDEGKHSPKQQRSSMRSAVKIMERTDCAICDKNFDSSDTLRRHIRTVHECDPDDIFGVEPHPSKRAKKDIESEEVVPVALNTSAGSLISSQTDGNGVVVREFLVDEGDGAAQTITLENETYTILPLDGAIEGEQLTDEAGVKPEAKKEEAQVSPVVKKEQRKSLAASLAAAIADNLEESCSEDDFSGEILTEEDIKLKENVGKLIDMLVDPPILKKYGWPNAPEETVLCKVIENCGHDLTKGGENYAELDYGSRMREYCKLLFTVVIHNDSIKSLLNNFPIDDVIEYVLGDEDQDEGGLDKDNESHSGDEEAVSVTGETKTNEIREKPEKKEVSAKSEKKEIVGKAVDKDNSEEVVRENKKKPVGEQEKA
B1: the binding entry in assay [5] was “binds”.

B2: SU(VAR)3-7 (protein, UniProt P20193 1-1250)
chain: MDRDSSMQAKNLDAQCNPDLKMASANSETLASATHELKIMDVEGGALVDPDHIEEVETSMVIVVDDDDGDVAMVVEEDKHPMRDDPCIEDIMDDEHAPLVAELQSALNNPDDKQASEDPLLEDQEREPDAMSTKTEPSSDAESSHSYHDPMGLLERIEIHDPGDSQDDDDEDDESSNGGGVDGGMRRKMPRAQRWLLWMKRWPWILHEDSDGTLAFCLYCNISINVNNRSRHIQQHNVSLSHQERECNYLAFKKSEEETRGAISDNEIKHEFGTKSYVAAMKQKRISETEAFNNFNWLRWLRWHPWLERSMPTGTIGTCRICSVRMNVEFVYLRKRHETTKGHMEALRNLDSDKRSRKRKRSKSNSVTNSGGDEAEREKESEPEVGPEDAQDTPVVMMNGDVDSGDDPGKWCALIPDTNPQQCRCTLCNCTMAITSFLRHCKTRAHCHMLSTPAEKGSSDIRGIWAVFADMHPWLIADPEDPSIGYCSVCRKRFMYGNSEIKRKNHEKSEKHTLALASAKAGIEVGSADGRGGDNMDEEEAAASDQAQSSQTDDSEDNDDDNWSEIQKLGKGFAHKSSSEPRKATVRAGVRFYPWLCYSKDRKTQICKFCRVRFHNEAAKARHELSARHVKLVKQFKMRQAKLHQGTNTQTKHNAQDDEESQEQDEEYGEEEEDAEEDSQSNFDLGTVQARKTARADNKLFVKPIPATMKGKVMVWKGRFPWLSYKKNEQRGNYAWCKLCEVSLYLPSSKWASKHQRTSRHIRLRIDRKRNGGNPLKTSNKNSGEISTVVATASALASAEARQKAAMAELQAKYDWLDPDANDENHCHCRVCDSRLPIKVFYLRQHDASRKHVENKERQRANAAAAANAPSVSPTSTVDAERQESGMDKESENDMSVRSDGSTAEPLAKRSRRSMEVRRIIRALRDSMGKRQEERSQMDMARDMICSSFDIVTRLRTLERESVAHNESMAQAPPSVTVSPIKPPEPRHVMDLFFDSISPTMKSLPPDLAAEGKSKIMQLVCSLELRAMQRNATTPTPATVSASSKWPSSTTVTPVKTPPAPISAPLASVDADLHSSVVTTPHEYNNGQNNNNDKETVPKEPVTGASSAQVTINGSAKDLPENIRRILTSNQTQVTNRLETDSVRCVPLDKLTTQSRTNVNGRLSQGGTSEAPSTPQADLSNGNTLAMIRQIRVNNNNSSKITVTNTPQMQQPQQAQASITSSTPIMRGGPSSNGCQITTFRTMVNHNRRP
Turning to B2, the binding result in assay [5] and in assay [6] was “binds” each time.

B3: nucleoplasmin (NLP) (protein, UniProt Q27415 1-152)
chain: T1 sequence
Take B3: the binding result in [7], in assay [2], in assay [8], in assay [9], in [4] and in assay [3] was “binds” throughout. For the same molecule, the binding result in [5] and in [6] was “binds” each time.
